# Values quoted from earlier work as cited in PMC11345841, “Exploring 2-Sulfonylpyrimidine Warheads as Acrylamide Surrogates for Targeted Covalent Inhibition: A BTK Story” (Journal of Medicinal Chemistry, 2024).
# Like-named read-outs stand apart in the source and are kept apart here. The source gives many values for each of these; only a part stands here.
# Test system: 468 human kinases
# Settings: cited from earlier work; for %Control: @1000nM, ref Buhimschi et al. 2018; for Percent of Control: ref Buhimschi/Crews
compound,measurement,setting,value
"C=CC(=O)N1CCC[C@@H](n2nc(-c3ccc(Oc4ccccc4)cc3)c3c(N)ncnc32)C1 [Compound 1g, Ibrutinib]",%Control,ABL1(F317I)-phosphorylated,67%
same,%Control,ABL1(H396P)-phosphorylated,77%
same,%Control,ABL1(T315I)-phosphorylated,99%
same,%Control,ABL1(Y253F)-phosphorylated,49%
same,%Control,AXL,73%
same,%Control,BLK,0.1%
same,%Control,CSF1R,98%
same,%Control,CTK,66%
same,%Control,DDR1,90%
same,%Control,EPHA3,89%
same,%Control,EPHA4,100%
same,%Control,EPHA6,100%
same,%Control,EPHB1,99%
same,%Control,ERBB4,0%
same,%Control,FLT1,61%
same,%Control,FLT3(ITD),55%
same,%Control,"FLT3(ITD,D835V)",58%
same,%Control,KIT(D816V),97%
same,%Control,KIT-autoinhibited,86%
same,%Control,LTK,91%
same,%Control,MST1R,89%
same,%Control,RET(V804L),93%
same,%Control,SRMS,0%
same,%Control,TRKA,67%
same,%Control,TYK2(JH2domain-pseudokinase),69%
same,%Control,VEGFR2,59%
same,Percent of Control,FLT1,61%
same,Percent of Control,JAK3(JH1domain-catalytic),0%
same,Percent of Control,TIE1,61%
